Data as given in article PMC11137047.
Results are given in words; binding and its absence hold for the method and conditions named. In cells and extracts the contact can be indirect. Some results given as binding are weak or reduced against the parent protein; the word gives no strength.

By UniProt entry, the sequences of proteins in these tests, tags left out. Residues count along the entry.
UniProt Q60751, residues 31-1373: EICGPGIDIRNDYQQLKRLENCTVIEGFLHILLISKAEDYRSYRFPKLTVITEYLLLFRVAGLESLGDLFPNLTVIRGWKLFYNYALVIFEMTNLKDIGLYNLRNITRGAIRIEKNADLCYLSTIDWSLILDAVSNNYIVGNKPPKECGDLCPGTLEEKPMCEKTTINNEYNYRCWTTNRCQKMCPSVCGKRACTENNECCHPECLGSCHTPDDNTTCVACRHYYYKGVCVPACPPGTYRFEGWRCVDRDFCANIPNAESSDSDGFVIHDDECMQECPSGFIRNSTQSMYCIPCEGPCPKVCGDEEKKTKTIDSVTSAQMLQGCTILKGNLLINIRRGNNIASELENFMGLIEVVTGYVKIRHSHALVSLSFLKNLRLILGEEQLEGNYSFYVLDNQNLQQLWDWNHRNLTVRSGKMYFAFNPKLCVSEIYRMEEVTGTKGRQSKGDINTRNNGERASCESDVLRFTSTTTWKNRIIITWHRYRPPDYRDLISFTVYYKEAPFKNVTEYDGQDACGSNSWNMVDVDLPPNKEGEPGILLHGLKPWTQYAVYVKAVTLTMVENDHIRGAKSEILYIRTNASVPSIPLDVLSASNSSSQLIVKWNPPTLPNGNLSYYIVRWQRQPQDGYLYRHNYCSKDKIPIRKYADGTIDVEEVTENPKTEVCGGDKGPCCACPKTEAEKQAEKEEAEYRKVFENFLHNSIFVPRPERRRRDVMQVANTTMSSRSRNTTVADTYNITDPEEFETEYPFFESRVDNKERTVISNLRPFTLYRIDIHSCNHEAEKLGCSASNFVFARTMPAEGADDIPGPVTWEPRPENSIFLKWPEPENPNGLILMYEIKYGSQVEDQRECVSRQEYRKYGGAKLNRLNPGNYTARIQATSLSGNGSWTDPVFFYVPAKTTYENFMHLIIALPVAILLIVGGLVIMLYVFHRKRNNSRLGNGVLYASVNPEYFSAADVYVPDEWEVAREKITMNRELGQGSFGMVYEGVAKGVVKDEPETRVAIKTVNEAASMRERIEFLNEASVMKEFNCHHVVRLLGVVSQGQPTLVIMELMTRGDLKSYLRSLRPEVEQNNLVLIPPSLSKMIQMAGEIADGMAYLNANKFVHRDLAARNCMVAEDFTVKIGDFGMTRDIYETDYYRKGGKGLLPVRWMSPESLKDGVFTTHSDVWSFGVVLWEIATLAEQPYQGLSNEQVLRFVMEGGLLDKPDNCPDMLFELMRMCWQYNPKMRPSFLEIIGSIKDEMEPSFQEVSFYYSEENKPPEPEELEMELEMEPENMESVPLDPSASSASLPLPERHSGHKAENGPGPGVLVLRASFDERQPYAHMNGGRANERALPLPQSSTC
UniProt P08113, residues 22-802: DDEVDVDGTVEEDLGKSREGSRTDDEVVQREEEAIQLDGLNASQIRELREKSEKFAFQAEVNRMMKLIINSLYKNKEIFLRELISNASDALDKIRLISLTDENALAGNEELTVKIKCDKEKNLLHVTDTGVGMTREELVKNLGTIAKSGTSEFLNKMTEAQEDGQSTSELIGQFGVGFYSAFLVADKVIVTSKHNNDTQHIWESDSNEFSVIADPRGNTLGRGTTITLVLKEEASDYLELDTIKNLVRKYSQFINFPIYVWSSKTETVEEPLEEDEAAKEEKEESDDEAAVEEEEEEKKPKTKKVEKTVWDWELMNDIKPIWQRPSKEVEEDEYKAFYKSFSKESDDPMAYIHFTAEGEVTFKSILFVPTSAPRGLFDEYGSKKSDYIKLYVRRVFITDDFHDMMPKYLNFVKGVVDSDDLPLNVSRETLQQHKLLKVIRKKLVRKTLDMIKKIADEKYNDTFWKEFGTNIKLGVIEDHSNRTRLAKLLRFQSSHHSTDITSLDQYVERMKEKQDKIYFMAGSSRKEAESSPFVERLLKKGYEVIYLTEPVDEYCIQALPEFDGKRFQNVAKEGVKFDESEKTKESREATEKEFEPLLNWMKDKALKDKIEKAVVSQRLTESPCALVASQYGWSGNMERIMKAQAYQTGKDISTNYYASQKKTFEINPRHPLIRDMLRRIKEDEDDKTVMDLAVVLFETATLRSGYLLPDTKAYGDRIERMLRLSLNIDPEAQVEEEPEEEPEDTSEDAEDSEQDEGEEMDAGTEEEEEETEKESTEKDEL

What was measured:
[1] = molecular target: insulin-like growth factor-1 receptor (IGF-1R) (mouse (endogenous in βTC3)) (UniProt Q60751); test: co-IP; lysates of WT or GRP94 knock-down βTC3 cells (1% NP-40, 150 mM NaCl, 20 mM Tris-HCl pH 7.5); 0.5-1 mg lysate with rabbit anti-GRP94 or rabbit anti-IGF-1R antibody overnight at 4 °C, Protein A agarose, five washes; immunoblot for IGF-1R and GRP94
[2] = molecular target: glucose-regulated protein 94 (GRP94) (mouse (endogenous in βTC3)) (UniProt P08113); test: as above

binding [1]	binding [2]	Substance
binds	–	glucose-regulated protein 94 (GRP94) (from UniProt P08113 22-802)
–	binds	insulin-like growth factor-1 receptor (IGF-1R) (from UniProt Q60751 31-1373)
